{"source": "patent US9295673B2", "about": "“Combination of mTOR inhibitors and P13-kinase inhibitors, and uses thereof” (Intellikine LLC, priority 2011, dated 2016)", "molecular_target": "T1, mTOR (Homo sapiens, UniProt P42345)", "T1 construct": "purchased Invitrogen", "assay": "mTOR kinase inhibition assay (radiometric or LanthaScreen TR-FRET)", "format": "biochemical", "conditions": "read-out: mTORC IC50", "note": "pIC50: −log10 of the molar value.", "data": [{"smiles": "Nc1nc2cc(-c3ccc4nccc(-c5ccncc5)c4c3)ccc2o1", "note": "[Compound 1]", "values": [{"measurement": "pIC50", "value": "> 6.00"}]}]}
